Test results as given in the supplement of paper PMC10338343.
± gives the standard deviation. The entries are a selection whose mix differs from that of the whole data set. The uncertainty is large for many entries.

Columns and labels:
[1] = system: MILI (PIWIL2) piRISC loaded with L1MC piRNA (26 nt); assay: pre-steady-state target cleavage rate (min^-1); MIWI and MILI are mouse PIWI proteins and EfPiwi is from a freshwater sponge; tags in brackets are library labels; higher = faster piRNA-guided slicing of the target; settings: guide: L1MC piRNA 5'p-UAACUAAAUACUAUGCAAGCUGUAGG
Procedure, shortened: (§1)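 In Cleave-'n-Seq, a transcribed, DNA-blocked target RNA library (0.1 nM) was combined with 1 nM active affinity-purified piRISC bearing one synthetic guide, with or without 500 nM GTSF1 partner protein. Reactions ran in HEPES–potassium acetate buffer at 33 °C for 0–8 or 0–960 min. Uncleaved targets were sequenced and normalised to depth and to weakly complementary targets, three trials were pooled, and k3 was capped at 0.0001 min^-1. The pre-steady-state cleavage rate was obtained by fitting a burst-and-steady-state model.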

[2] = system: MIWI (PIWIL1) piRISC loaded with L1MC piRNA (30 nt); assay: as above; settings: guide: L1MC piRNA 5'p-UAACUAAAUACUAUGCAAGCUGUAGGUCCU
Procedure, shortened: as §1

[3] = auxiliary factor: 500 nM mouse GTSF1
[4] = auxiliary factor: none (no GTSF1)

| Sequence | pre-steady-state target cleavage rate [1, 3] | pre-steady-state target cleavage rate [1, 4] | pre-steady-state target cleavage rate [2, 4] | pre-steady-state target cleavage rate [2, 3] |
| --- | --- | --- | --- | --- |
| UCCUGGAACAGCUUGCAUAGUAUAAAGAAA | 0.0192 ± 0.0088 | 0.000649 ± 0.0077 | 0.00147 ± 0.0053 | – |
| UCCUGGAUCACGAUGCAUAGUAUUUAGUAA | 0.173 ± 0.016 | 0.00263 ± 0.0032 | 0.00151 ± 0.0036 | – |
| UCCUGGAUGUCGAACGAUAGUAUUUAGUUUA | 0.000278 ± 0.025 | 0.000346 ± 0.016 | 0.000513 ± 0.0096 | – |
| UCCUGGAUGUCGAAGCAUAGUUUUUAGUAA | 0.00175 ± 0.0061 | 0.000732 ± 0.006 | 0.000221 ± 0.013 | 0.00029 ± 0.033 |
| UCCUCCUACAGCUUGCAUAGUAUAAUGAAA | 0.0878 ± 0.019 | 0.000907 ± 0.0054 | 0.00134 ± 0.0044 | – |
| UCCUGGAUGUCGAUGCAAGUAUUUAGUUA | 0.00124 ± 0.006 | 0.000913 ± 0.0053 | 0.00178 ± 0.0048 | – |
| UCCUGGAUGUCCUUGCAUUCAUAAAUCAAA [g13:g19:cont:t1A] | – | 0.000444 ± 0.0089 | 0.000622 ± 0.0084 | – |
| UCCUGGAUGUCCUUGCAUACUAUUUAGAUA | 0.00286 ± 0.0044 | 0.000977 ± 0.005 | 0.000966 ± 0.0066 | 0.00269 ± 0.0047 |
| UCCUGGAUGUCGAACCAUAGUAUUUAAGUUA | 0.000681 ± 0.0093 | 0.000171 ± 0.024 | 0.000265 ± 0.019 | 0.000529 ± 0.011 |
| UCCUGGAUGUCGAACCAUAGUUUUUAGUAA | 0.000226 ± 0.021 | < 0.0001 | 0.000321 ± 0.015 | 0.000211 ± 0.019 |
| UCCUGGAUCAGCUUCCAUAGUAUUUAGUUA | – | 0.00133 ± 0.0034 | 0.00169 ± 0.002 | – |
| UCCUCCUUCAGCUAGCAUAGUAUUUAGUUA | 0.228 ± 0.017 | 0.00519 ± 0.0022 | 0.0147 ± 0.0034 | 0.78 ± 0.032 |
| UCCUGGAUGUCGUUGCAUAGAUUUUAGUUA | 0.00302 ± 0.0046 | 0.00439 ± 0.0019 | 0.000864 ± 0.007 | 0.000151 ± 0.061 |
| UCCUGGAACAGCUUGCAUAGUAAUUACAAA | – | 0.000844 ± 0.0072 | 0.00102 ± 0.0076 | – |
| UCCUGGAUGAGCUUGCAUAGUAUAUACAAA | – | 0.00126 ± 0.0055 | 0.00115 ± 0.0065 | – |
| UCCUGGAUGAGCUUGCAUAGUAAAAAGAAA | 0.00225 ± 0.0063 | 0.000771 ± 0.0076 | 0.000366 ± 0.0077 | 0.000915 ± 0.011 |
| UCCUGGUACAGCUAGCAUAGUAAUUAGUUA | 0.236 ± 0.041 | 0.00483 ± 0.0027 | 0.00998 ± 0.0037 | 0.379 ± 0.053 |
| UCCUGGAUGAGCUUGCAUAUGUAUUUAGUUA | 0.00243 ± 0.005 | 0.0008 ± 0.01 | 0.000687 ± 0.014 | 0.00135 ± 0.0068 |
| UCCUGGAUGUCGUUGCAUAGUAUUUAGUCUA | 0.013 ± 0.0062 | 0.00433 ± 0.0036 | 0.00199 ± 0.0052 | 0.00135 ± 0.0069 |
| UCCUGGUACAGCUUCCAUAGUAUUUAGAUA | – | 0.000759 ± 0.01 | 0.00101 ± 0.0057 | – |
| UCCUGGUACAGCUUGCAUAGUUAAAUCAAA [g10:g24:cont:t1A] | – | 0.00102 ± 0.0065 | 0.00131 ± 0.007 | – |
| UCCUGGAUGUCGUUGCAUGUAUUUAGUUA | 0.00113 ± 0.0078 | 0.00127 ± 0.0048 | 0.00145 ± 0.005 | 0.000491 ± 0.018 |
| UCCUGCUACAGCUUGCAUAGUAAAUACAAA | – | 0.000944 ± 0.0065 | 0.000652 ± 0.014 | – |

Part of the list above, as labelled records:
UCCUGGAUGUCGAACCAUAGUAUUUAAGUUA
  pre-steady-state target cleavage rate [1, 3]: 0.000681 ± 0.0093
  pre-steady-state target cleavage rate [1, 4]: 0.000171 ± 0.024
  pre-steady-state target cleavage rate [2, 4]: 0.000265 ± 0.019
  pre-steady-state target cleavage rate [2, 3]: 0.000529 ± 0.011
UCCUGGAUGUCGAACCAUAGUUUUUAGUAA
  pre-steady-state target cleavage rate [1, 3]: 0.000226 ± 0.021
  pre-steady-state target cleavage rate [1, 4]: < 0.0001
  pre-steady-state target cleavage rate [2, 4]: 0.000321 ± 0.015
  pre-steady-state target cleavage rate [2, 3]: 0.000211 ± 0.019
